These are yes or no findings as the source states them, for the method shown. Binding seen in cells or lysates may run through a third protein. Some entries that bind do so weakly or less than the wild type.
Target: paxillin (human (endogenous in hTERT-MSCs)) (UniProt P49023)
Assay: co-IP; hTERT-MSC lysate (Pierce IP Lysis Buffer with protease/phosphatase inhibitors) incubated overnight at 4 °C with magnetic beads and 1 µg paxillin antibody; eluates blotted with paxillin and PTPRK antibodies

Protein sequences, listed by entry. Tags and fused reporters are not part of them.
UniProt P49023: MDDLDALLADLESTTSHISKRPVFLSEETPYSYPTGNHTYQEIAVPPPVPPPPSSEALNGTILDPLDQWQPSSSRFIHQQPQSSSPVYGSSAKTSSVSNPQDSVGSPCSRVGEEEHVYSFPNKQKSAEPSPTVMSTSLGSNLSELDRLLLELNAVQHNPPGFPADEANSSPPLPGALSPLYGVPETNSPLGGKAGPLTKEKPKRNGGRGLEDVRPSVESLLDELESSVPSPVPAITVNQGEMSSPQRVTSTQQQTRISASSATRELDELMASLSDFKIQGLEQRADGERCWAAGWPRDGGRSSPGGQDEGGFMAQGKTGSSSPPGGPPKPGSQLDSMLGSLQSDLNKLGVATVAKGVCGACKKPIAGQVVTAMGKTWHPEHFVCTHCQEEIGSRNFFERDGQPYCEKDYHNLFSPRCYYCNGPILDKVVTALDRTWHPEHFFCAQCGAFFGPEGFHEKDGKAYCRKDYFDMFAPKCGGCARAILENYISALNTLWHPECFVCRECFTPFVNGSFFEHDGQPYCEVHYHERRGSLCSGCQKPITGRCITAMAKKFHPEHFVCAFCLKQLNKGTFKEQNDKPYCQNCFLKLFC

binding: binds
B1: protein tyrosine phosphatase receptor type kappa (protein, UniProt Q15262 27-1439)
chain: AQGQFSAGGCTFDDGPGACDYHQDLYDDFEWVHVSAQEPHYLPPEMPQGSYMIVDSSDHDPGEKARLQLPTMKENDTHCIDFSYLLYSQKGLNPGTLNILVRVNKGPLANPIWNVTGFTGRDWLRAELAVSTFWPNEYQVIFEAEVSGGRSGYIAIDDIQVLSYPCDKSPHFLRLGDVEVNAGQNATFQCIATGRDAVHNKLWLQRRNGEDIPVAQTKNINHRRFAASFRLQEVTKTDQDLYRCVTQSERGSGVSNFAQLIVREPPRPIAPPQLLGVGPTYLLIQLNANSIIGDGPIILKEVEYRMTSGSWTETHAVNAPTYKLWHLDPDTEYEIRVLLTRPGEGGTGLPGPPLITRTKCAEPMRTPKTLKIAEIQARRIAVDWESLGYNITRCHTFNVTICYHYFRGHNESKADCLDMDPKAPQHVVNHLPPYTNVSLKMILTNPEGRKESEETIIQTDEDVPGPVPVKSLQGTSFENKIFLNWKEPLDPNGIITQYEISYSSIRSFDPAVPVAGPPQTVSNLWNSTHHVFMHLHPGTTYQFFIRASTVKGFGPATAINVTTNISAPTLPDYEGVDASLNETATTITVLLRPAQAKGAPISAYQIVVEELHPHRTKREAGAMECYQVPVTYQNAMSGGAPYYFAAELPPGNLPEPAPFTVGDNRTYQGFWNPPLAPRKGYNIYFQAMSSVEKETKTQCVRIATKAATEEPEVIPDPAKQTDRVVKIAGISAGILVFILLLLVVILIVKKSKLAKKRKDAMGNTRQEMTHMVNAMDRSYADQSTLHAEDPLSITFMDQHNFSPRYENHSATAESSRLLDVPRYLCEGTESPYQTGQLHPAIRVADLLQHINLMKTSDSYGFKEEYESFFEGQSASWDVAKKDQNRAKNRYGNIIAYDHSRVILQPVEDDPSSDYINANYIDGYQRPSHYIATQGPVHETVYDFWRMIWQEQSACIVMVTNLVEVGRVKCYKYWPDDTEVYGDFKVTCVEMEPLAEYVVRTFTLERRGYNEIREVKQFHFTGWPDHGVPYHATGLLSFIRRVKLSNPPSAGPIVVHCSAGAGRTGCYIVIDIMLDMAEREGVVDIYNCVKALRSRRINMVQTEEQYIFIHDAILEACLCGETAIPVCEFKAAYFDMIRIDSQTNSSHLKDEFQTLNSVTPRLQAEDCSIACLPRNHDKNRFMDMLPPDRCLPFLITIDGESSNYINAALMDSYRQPAAFIVTQYPLPNTVKDFWRLVYDYGCTSIVMLNEVDLSQGCPQYWPEEGMLRYGPIQVECMSCSMDCDVINRIFRICNLTRPQEGYLMVQQFQYLGWASHREVPGSKRSFLKLILQVEKWQEECEEGEGRTIIHCLNGGGRSGMFCAIGIVVEMVKRQNVVDVFHAVKTLRNSKPNMVEAPEQYRFCYDVALEYLESS

From article PMC11256664
